Some of the results follow. This data set is noisy: repeats of one test often differ as much as different tests do.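 Fusion between ACE2-bearing and full-length-spike-bearing U2OS cells was measured by imaging as the percentage of nuclei with both cell types' fluorescent markers. An inhibitory hit is a non-toxic compound whose fusion z-score is below -3, more than three standard deviations beneath the plate's DMSO wells.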

The test relates to U2OS ACE2 x SARS-CoV-2 spike co-culture. The test can be described thus: cell-cell fusion (fraction fused) z-score vs plate DMSO control; higher = more fusion. The note with it: 30 µM; 5 h; toxicity class: non-toxic, passed QC.
With `C1CCc2nnnn2CC1`, the “cell-cell fusion (z-score)” value was inactive: 2.6. For the compound `C1CCc2nnnn2CC1` [Pentylenetetrazole], the “cell-cell fusion (z-score)” value was inactive: 2.31. Next, `CC(C)C(=O)c1c(C(C)C)nn2ccccc12` [Ibudilast]: inactive: 0.682; `Cc1nc(/N=N/c2ccc(S(=O)(=O)[O-])cc2S(=O)(=O)[O-])c(COP(=O)([O-])[O-])c(C=O)c1O.[Na+].[Na+].[Na+].[Na+]`: inactive: -2.38; `CC(=O)O[C@]1(C(C)=O)CC[C@H]2[C@@H]3C=C(C)C4=CC(=O)CC[C@]4(C)[C@H]3CC[C@@]21C` [Megestrol acetate]: inactive: 1.85. Take `CCN(CC)C(=O)N1CCN(C)CC1.O=C(O)CC(O)(CC(=O)O)C(=O)O`: the “cell-cell fusion (z-score)” value was inactive: 0.286. To `CC(=O)Oc1ccc(C(c2ccc(OC(C)=O)cc2)c2ccccn2)cc1` [Bisacodyl] belongs inactive: 2.31; to `COC(=O)[C@H](c1ccccc1Cl)N1CCc2sccc2C1.O=S(=O)(O)O` [(S)-(+)-Clopidogrel hydrogen sulfate], inactive: 2.06. Regarding `N[C@@H](Cc1ccc(O)c(I)c1)C(=O)O` [3-Iodo-L-tyrosine], the “cell-cell fusion (z-score)” value is inactive: 1.76.

Take `C[N+]1(C)CCOC(O)(c2ccc(-c3ccc(C4(O)C[N+](C)(C)CCO4)cc3)cc2)C1.[Br-].[Br-]` (configuration not stated) [Hemicholinium-3]: the “cell-cell fusion (z-score)” value was inactive: 0.366. To `O=C(Nc1ccc([N+](=O)[O-])cc1Cl)c1cc(Cl)ccc1O` belongs inactive: 0.852; to `C.O=C([O-])[C@H](CC(=O)N1C[C@H]2CCCC[C@H]2C1)Cc1ccccc1` [Mitiglinide calcium], inactive: 2.15. With `CCC(C)C1NC(=O)C(CCN)NC(=O)C(NC(=O)C(CCN)NC(=O)C(NC(=O)C(CCN)NC(=O)CCCCC(C)C)C(C)O)CCNC(=O)C(C(C)O)NC(=O)C(CCN)NC(=O)C(CCN)NC(=O)C(C(C)CC)NC1=O.O=S(=O)(O)O.O=S(=O)(O)O` (configuration not stated), the “cell-cell fusion (z-score)” value was inactive: 2.77. To `Nc1nnc[nH]1` belongs inactive: 1.75. Take `COc1cccc(-c2cc(=O)c3ccccc3o2)c1N`: the “cell-cell fusion (z-score)” value was inactive: 2.86. For the compound `CNC[C@H](O)c1ccc(O)c(O)c1.O=C(O)[C@H](O)[C@@H](O)C(=O)O` [Epinephrine bitartrate], the “cell-cell fusion (z-score)” value was inactive: -0.975. Consider `Nc1ccc(C(=O)[O-])c(O)c1.[Na+]`, for which the “cell-cell fusion (z-score)” value was inactive: 0.715. Consider `C[C@H]1C[C@H]2[C@@H]3CCC4=CC(=O)C=C[C@]4(C)[C@@]3(F)[C@@H](O)C[C@]2(C)[C@@]1(O)C(=O)CO` [Betamethasone], for which the “cell-cell fusion (z-score)” value is inactive: 2.94. For the compound `CC/C(=C(\c1ccccc1)c1ccc(OCCN(C)C)cc1)c1ccccc1` [Tamoxifen], the “cell-cell fusion (z-score)” value is inactive: 3.74. For `C[C@H](C(=O)O)c1cccc(C(=O)c2ccccc2)c1` [(S)-(+)-Ketoprofen], the “cell-cell fusion (z-score)” value is inactive: -0.156. Next, `CC(=O)/C(C)=N/O` [2,3-Butanedione monoxime]: inactive: 0.914. With `CCN(CC)CC(=O)Nc1c(C)cccc1C` [Xylocaine], the “cell-cell fusion (z-score)” value was inactive: 2.09. `Cl.NNc1nncc2ccccc12` [Hydralazine hydrochloride]: the “cell-cell fusion (z-score)” value is inactive: 2.12. Consider `C[C@@H]1O[C@@H](O[C@H]2C[C@@H](O)[C@]3(CO)[C@@H]4C(CC[C@]3(O)C2)[C@@]2(O)CC[C@H](C3COC(=O)C3)[C@@]2(C)C[C@H]4O)[C@H](O)[C@H](O)[C@H]1O` (some centres not stated) [Dihydroouabain], for which the “cell-cell fusion (z-score)” value was inactive: 0.715.

Consider `CCCCCCCCCCCCCC(=O)O[C@@H]1[C@@H](C)[C@@]2(O)[C@@H](C=C(CO)C[C@@]3(O)C(=O)C(C)=C[C@@H]23)[C@@H]2C(C)(C)[C@]12OC(C)=O` [Phorbol 12-myristate 13-acetate], for which the “cell-cell fusion (z-score)” value is inactive: 0.114.

In the case of `C[C@H](N)CN1CCc2ccc(Br)cc21.C[C@H](N)CN1CCc2ccc(Br)cc21.O=C(O)/C=C/C(=O)O` [VER-3323 hemifumarate salt], the “cell-cell fusion (z-score)” value is inactive: 2.58. Consider `O=c1cc(-c2ccc(O)cc2)oc2cc(O[C@@H]3O[C@H](CO)[C@@H](O)[C@H](O)[C@H]3O[C@@H]3OC[C@](O)(CO)[C@H]3O)cc(O)c12`, for which the “cell-cell fusion (z-score)” value was inactive: 2.38. As for `Cc1c(NC(=O)c2cccnc2)c(=O)n(-c2ccccc2)n1C`, the “cell-cell fusion (z-score)” value was inactive: 2.81. Consider `C[C@]12CCC(=O)C=C1CC[C@@H]1[C@@H]2C(=O)C[C@@]2(C)[C@H]1CC[C@]2(O)C(=O)CO` [Cortisone], for which the “cell-cell fusion (z-score)” value is inactive: 2.31. `Brc1c(Br)c(Br)c2[nH]nnc2c1Br`: the “cell-cell fusion (z-score)” value was inactive: 1.6. `Cl.O.O=C(CCc1ccncc1)NNC(=O)N1Cc2ccccc2Oc2ccc(Cl)cc21`: the “cell-cell fusion (z-score)” value was inactive: 0.476.

Take `O=c1c(O)c(-c2ccc(O)c(O)c2)oc2cc(O)cc(O)c12` [Quercetin dihydrate]: the “cell-cell fusion (z-score)” value was inactive: 0.98. Consider `N#CC(C#N)=Cc1ccc(O)c(O)c1`, for which the “cell-cell fusion (z-score)” value was inactive: 1.5. For `CCCC(C)C1(CC)C(=O)N=C([S-])NC1=O.[Na+]` (configuration not stated), the “cell-cell fusion (z-score)” value was inactive: 1.7. Turning to `CC(=O)O[C@@]12CO[C@@H]1C[C@H](O)[C@@]1(C)C(=O)[C@H](O)C3=C(C)[C@@H](OC(=O)[C@H](O)[C@@H](NC(=O)OC(C)(C)C)c4ccccc4)C[C@@](O)([C@@H](OC(=O)c4ccccc4)C12)C3(C)C.O.O.O` (some centres not stated), the “cell-cell fusion (z-score)” value was inactive: 1.18. `Clc1ccc2c(c1)CCc1cccnc1C2=C1CCNCC1`: the “cell-cell fusion (z-score)” value was active: -5.27.

Turning to `COc1ccccc1N1CCN(CC(O)COc2cccc3ccccc23)CC1.Cl.Cl` (configuration not stated) [Naftopidil dihydrochloride], the “cell-cell fusion (z-score)” value is inactive: 2.55. On to `CN(C)CCOc1ccc(/C(=C(/CCCl)c2ccccc2)c2ccccc2)cc1.O=C(O)CC(O)(CC(=O)O)C(=O)O`, for which the “cell-cell fusion (z-score)” value was inactive: 0.508. With `CCCn1c(=O)c2[nH]c(-c3ccc(S(=O)(=O)O)cc3)nc2n(CCC)c1=O` [1,3-Dipropyl-8-p-sulfophenylxanthine], the “cell-cell fusion (z-score)” value is inactive: 0.937. In the case of `O=C1NC(=O)/C(=C/c2ccc3nccnc3c2)S1`, the “cell-cell fusion (z-score)” value was inactive: 0.918.

On to `CCC(NC(C)C)C(O)c1ccc(O)c(O)c1.CS(=O)(=O)O` (configuration not stated), for which the “cell-cell fusion (z-score)” value was inactive: -0.576. To `COc1ccc(CN2CCN(C(c3ccc(F)cc3)c3ccc(F)cc3)CC2)c(OC)c1OC` belongs inactive: 0.15; to `Cc1nnc(C(C)C)n1[C@@H]1C[C@H]2CC[C@@H](C1)N2CC[C@H](NC(=O)C1CCC(F)(F)CC1)c1ccccc1` [Maraviroc], inactive: 2.66; to `CCn1cc(C(=O)O)c(=O)c2cc(F)c(N3CCNCC3)cc21` [Norfloxacin], inactive: 2.13. Take `CCN(CC)CCCCCCCCOC(=O)c1cc(OC)c(OC)c(OC)c1.Cl` [TMB-8 hydrochloride]: the “cell-cell fusion (z-score)” value was inactive: 1.51. Next, `CC1(C)C[C@@H]1C(=O)N/C(=C\CCCCSC[C@H](N)C(=O)O)C(=O)O` [Cilastatin]: inactive: 2.24; `CC1CCN(CC[C@H]2CCCN2S(=O)(=O)c2cccc(O)c2)CC1.Cl`: inactive: 1.68. Regarding `O=C1NCc2c1c1c3ccccc3[nH]c1c1[nH]c3ccccc3c21` [Staurosporine aglycone], the “cell-cell fusion (z-score)” value was inactive: -1.63. On to `O=C([O-])C(O)[C@H](O)[C@H](O)[C@H](O)[C@H](O)CO.O=C([O-])C(O)[C@H](O)[C@H](O)[C@H](O)[C@H](O)CO.[Ca+2]` (some centres not stated), for which the “cell-cell fusion (z-score)” value was inactive: 1.97. To `Cl.O=C(O)Cc1c[nH]cn1` [Imidazole-4-acetic acid hydrochloride] belongs inactive: 0.817; to `COCCOC(=O)C1=C(C)NC(C)=C(C(=O)OC/C=C/c2ccccc2)C1c1cccc([N+](=O)[O-])c1` (configuration not stated) [Cilnidipine], active: -3.45; to `CCCCCN(C)CCC(O)(P(=O)([O-])O)P(=O)(O)O.O.[Na+]`, inactive: 3.05. Turning to `CCC1(C)OC(=O)N(C)C1=O` (configuration not stated), the “cell-cell fusion (z-score)” value was inactive: 1.99. In the case of `C[C@@H](Cc1ccc(C=O)cc1)NC[C@@H](O)c1ccc(O)c(NCO)c1.C[C@@H](Cc1ccc(C=O)cc1)NC[C@@H](O)c1ccc(O)c(NCO)c1.O=C(O)/C=C/C(=O)O` [Formoterol], the “cell-cell fusion (z-score)” value was inactive: -0.35. Take `Cl.NC(Cc1ccc(O)cc1)C(=O)O` (configuration not stated): the “cell-cell fusion (z-score)” value was inactive: 1.83.

With `NC(=O)CCCCC1CCSS1` (configuration not stated), the “cell-cell fusion (z-score)” value is inactive: 2.1. Regarding `COc1ccc(/C=C/C(=O)Nc2ccccc2C(=O)O)cc1OC`, the “cell-cell fusion (z-score)” value is inactive: 1.25. As for `CCC(C)(C)C(=O)O[C@H]1C[C@@H](C)C=C2C=C[C@H](C)[C@H](CC[C@@H]3C[C@@H](O)CC(=O)O3)[C@H]21`, the “cell-cell fusion (z-score)” value is inactive: 0.666.

Take `CCC(C)(C)C(=O)O[C@H]1C[C@@H](C)C=C2C=C[C@H](C)[C@H](CC[C@@H]3C[C@@H](O)CC(=O)O3)[C@H]21` [Simvastatin]: the “cell-cell fusion (z-score)” value is active: -7.41. For the compound `CC(N)O.Cc1cc(CC(C)CC(C)(C)C)n(O)c(=O)c1` (configuration not stated), the “cell-cell fusion (z-score)” value is inactive: 0.562. As to `O=C(NC1CN2CCC1CC2)c1cc2ccoc2cn1` (configuration not stated), the “cell-cell fusion (z-score)” value was inactive: 3.29. To `O=C(Nc1ccc(C(=O)O)c(O)c1)c1ccccc1` belongs inactive: 0.067; to `CS(=O)(=O)OCCCCOS(C)(=O)=O`, inactive: 1.27; to `CNC(C)[C@H](O)c1ccccc1.Cl` (some centres not stated), inactive: -0.763. Regarding `CC1(C)CC2C1CC[C@]1(C)CCC3C(C(=O)O)CC(=O)O[C@@]32C1` (some centres not stated) [3-HYDROXY-4-(SUCCIN-2-YL)-CARYOLANE delta-LACTONE], the “cell-cell fusion (z-score)” value was inactive: 2.27. For `Nc1ccn([C@@H]2O[C@H](CO)[C@@H](O)[C@H]2O)c(=O)n1` [Cytarabine], the “cell-cell fusion (z-score)” value is inactive: 0.642. With `CCCCCCCC(=O)N[C@H](CN1CCCC1)[C@H](O)c1ccc2c(c1)OCCO2` [Eliglustat], the “cell-cell fusion (z-score)” value was inactive: 1.69.

Source of the values: the supplement of paper PMC8104966.
